Values from PubChem BioAssay AID1259254 (NCATS, 2017).
This is an unselected part of about 59,000 deposited reagents. In the full data, about 1,550 (2.6%) were called active. 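G2 share is only a proxy for re-replication; each gene was hit by three separate siRNAs, and active genes were retested.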 The raw values are shown without normalisation. Reagents against one gene are numbered here. No sequences are given here. The record does not give: the amount of reagent.

- Assay: 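Finding genes that stop cells copying their DNA twice in one cycle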 (primary screen)
- Cells: human HCT116 colorectal cancer cells
- Reagents: single siRNA against human genes
- Timing: 3 days
- Measured: 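Imaged Hoechst DNA stain sorts each cell into a cycle phase by DNA amount; per plate, G2 fraction set to 0% for non-targeting and 100% for GMNN siRNA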
- Scale: G2 robust z-score and G2 cells, % of GMNN control: higher = more G2 cells, more excess DNA replication; raw share of cells in G2: higher = larger share of cells with G2 DNA content
- Active means: 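An siRNA counts as active if its G2 robust z-score lies at least 5 MADs above the screen median; here such calls match roughly 38% of GMNN control or more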

| gene | reagent no. | G2 robust z-score | G2 cells, % of GMNN control | raw share of cells in G2 (%) | activity call |
| --- | --- | --- | --- | --- | --- |
| MKKS | 1 | -0.676 | -1.79 | 2.93 | inactive |
| MKKS | 2 | -0.0403 | 2.68 | 7.18 | inactive |
| MKKS | 3 | -1.14 | -5.08 | 1.21 | inactive |
| EIF2S2 | 1 | 2.33 | 19.3 | 12.1 | inactive |
| EIF2S2 | 2 | 1.25 | 11.8 | 9.88 | inactive |
| EIF2S2 | 3 | 5.02 | 38.3 | 18.4 | active |
| LSG1 | 1 | -0.992 | -4.01 | 2.66 | inactive |
| LSG1 | 2 | 0.661 | 7.62 | 7.17 | inactive |
| LSG1 | 3 | -0.908 | -3.42 | 4.93 | inactive |
| KHDC3L | 1 | -0.431 | -0.0665 | 3.58 | inactive |
| KHDC3L | 2 | 0.668 | 7.67 | 5.53 | inactive |
| KHDC3L | 3 | 11.4 | 83.4 | 29.1 | active |
| CX3CL1 | 1 | 0.0789 | 3.52 | 6.47 | inactive |
| CX3CL1 | 2 | -0.885 | -3.26 | 2.93 | inactive |
| CX3CL1 | 3 | 1.2 | 11.4 | 7.48 | inactive |
| EPRS1 | 1 | 0.79 | 8.53 | 8.33 | inactive |
| EPRS1 | 2 | 2.24 | 18.8 | 12.4 | inactive |
| EPRS1 | 3 | 12 | 87.6 | 34.9 | active |
| ZNF443 | 1 | 0.497 | 6.46 | 5.68 | inactive |
| ZNF443 | 2 | -0.398 | 0.165 | 3.41 | inactive |
| ZNF443 | 3 | -0.887 | -3.27 | 4.53 | inactive |
| KDF1 | 1 | 0.554 | 6.86 | 6.76 | inactive |
| KDF1 | 2 | 0.388 | 5.7 | 4.91 | inactive |
| KDF1 | 3 | -0.73 | -2.17 | 1.79 | inactive |
| TMEM89 | 1 | 0.835 | 8.85 | 7.04 | inactive |
| TMEM89 | 2 | 0.0574 | 3.37 | 4.69 | inactive |
| TMEM89 | 3 | -0.45 | -0.198 | 3.05 | inactive |
| LDHAL6B | 1 | -0.534 | -0.793 | 4.63 | inactive |
| LDHAL6B | 2 | 0.016 | 3.08 | 7.1 | inactive |
| LDHAL6B | 3 | -0.225 | 1.38 | 5 | inactive |
| CES3 | 1 | 2.33 | 19.4 | 11.7 | inactive |
| CES3 | 2 | 0.271 | 4.88 | 6.05 | inactive |
| CES3 | 3 | 0.949 | 9.65 | 6.67 | inactive |
| TMEM33 | 1 | 1.55 | 13.9 | 7.57 | inactive |
| TMEM33 | 2 | 0.385 | 5.68 | 6.71 | inactive |
| TMEM33 | 3 | -0.0538 | 2.59 | 5.21 | inactive |
| PAPLN | 1 | 2.63 | 21.4 | 14.2 | inactive |
| PAPLN | 2 | 0.0467 | 3.3 | 5.73 | inactive |
| PAPLN | 3 | 0.132 | 3.9 | 7.48 | inactive |
| DENND2B | 1 | 3.67 | 28.8 | 17.9 | inactive |
| DENND2B | 2 | 1.37 | 12.6 | 8.88 | inactive |
| DENND2B | 3 | 1.08 | 10.6 | 7.09 | inactive |

Records above called active (3):
| gene | reagent no. | G2 robust z-score | G2 cells, % of GMNN control | raw share of cells in G2 (%) | activity call |
| --- | --- | --- | --- | --- | --- |
| EIF2S2 | 3 | 5.02 | 38.3 | 18.4 | active |
| KHDC3L | 3 | 11.4 | 83.4 | 29.1 | active |
| EPRS1 | 3 | 12 | 87.6 | 34.9 | active |

Additional results follow:
| gene | reagent no. | G2 robust z-score | G2 cells, % of GMNN control | raw share of cells in G2 (%) | activity call |
| --- | --- | --- | --- | --- | --- |
| OR10G3 | 1 | -0.503 | -0.569 | 3.1 | inactive |
| OR10G3 | 2 | -0.331 | 0.64 | 4.65 | inactive |
| OR10G3 | 3 | 3.61 | 28.4 | 16.2 | inactive |
| KRT73 | 1 | -1.25 | -5.85 | 1.98 | inactive |
| KRT73 | 2 | -0.534 | -0.791 | 2.91 | inactive |
| KRT73 | 3 | -0.766 | -2.42 | 3.21 | inactive |
| TRADD | 1 | 1.08 | 10.6 | 9.82 | inactive |
| TRADD | 2 | -0.257 | 1.16 | 4.35 | inactive |
| TRADD | 3 | -0.747 | -2.29 | 2.54 | inactive |
| LINC01120 | 1 | 1.02 | 10.1 | 7.24 | inactive |
| LINC01120 | 2 | 0.279 | 4.93 | 5.55 | inactive |
| LINC01120 | 3 | 3.76 | 29.4 | 17.3 | inactive |
| GUCA2A | 1 | -0.986 | -3.97 | 2.75 | inactive |
| GUCA2A | 2 | -0.464 | -0.299 | 4.94 | inactive |
| GUCA2A | 3 | -0.877 | -3.2 | 4.46 | inactive |
| NRCAM | 1 | -1.02 | -4.24 | 3.03 | inactive |
| NRCAM | 2 | -0.00583 | 2.93 | 4.2 | inactive |
| NRCAM | 3 | -0.544 | -0.859 | 4.88 | inactive |
| GTSCR1 | 1 | -0.297 | 0.88 | 3.47 | inactive |
| GTSCR1 | 2 | 0.877 | 9.14 | 6.89 | inactive |
| GTSCR1 | 3 | 0.201 | 4.38 | 4.63 | inactive |
| ADIG | 1 | 0.16 | 4.09 | 5.2 | inactive |
| ADIG | 2 | 2.52 | 20.7 | 9.31 | inactive |
| ADIG | 3 | -0.938 | -3.63 | 1.8 | inactive |
| USP12 | 1 | -0.2 | 1.56 | 6.26 | inactive |
| USP12 | 2 | -1.07 | -4.54 | 2.98 | inactive |
| USP12 | 3 | -0.292 | 0.91 | 4.6 | inactive |
